# Experimental data: article PMC7672459, “Detection of genomic G-quadruplexes in living cells using a small artificial protein”
# Tested on: nucleolin (NCL)
# Assay: EMSA
# Details: 0.2 uM NCL, 20 nM DNA, complex then fixed; EMSA: 20 mM Tris-HCl pH 7.4, 75 mM KCl, 1 mM EDTA, 0.4 mg/ml BSA, 10 nM DNA, 4 C (or 37 C), 1 h; dsDNA with 30% PEG 200; recombinant protein; label: 5' FAM; folded or branched DNA
sequence,measurement,value
AGGGCGGTGTGGGAAGAGGGAAGAGGGGGAGG [KRAS],binding result,binds

# Construct, isoform or probe ends are uncertain for at least one entry. At least one verdict was read from the data and is not stated in words by the source.
